Values from PubChem BioAssay AID493246 (Drosophila RNAi Screening Center, 2011)

Screen: 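Identify essential fly genes by loss of cell viability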 (primary screen)
System: Drosophila Kc and S2R+ cells
Knock-down reagent: long dsRNA against Drosophila genes
Measured: 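Cell number per well after knock-down, printed as raw plate values; calls were based on per-plate z-scores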
Direction: Kc cell number and S2R+ cell number: higher = more cells remaining
Active means: 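Counted as a hit if cell number falls by a z-score of at least 3 within its plate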
The screen tested about 21,000 reagents; below is an unselected part of those that have a named target and a result. Of all reagents, 429 (2%) got an active call. 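Values are raw and not normalised between plates; calls rest on per-plate z-scores that were not deposited.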 Unmarked entries are inactive. The record does not give: the amount of reagent, the time to read-out.

| Gene | DRSC id | Kc cell number, rep 1 | Kc cell number, rep 2 | S2R+ cell number, rep 1 | S2R+ cell number, rep 2 |
| --- | --- | --- | --- | --- | --- |
| CG14088 (GeneID 40098) | DRSC10092 | 1.53e6 | 1.91e6 | 1.25e6 | 1.32e6 |
| yellow-g (GeneID 38294) | DRSC08575 | 1.44e6 | 1.29e6 | 9.90e5 | 1.22e6 |
| CG10512 (GeneID 40339) | DRSC11615 | 1.59e6 | 1.48e6 | 1.35e6 | 1.43e6 |
| c-cup (GeneID 33360) | DRSC00458 | 1.63e6 | 1.67e6 | 1.16e6 | 1.21e6 |
| MED30 (GeneID 38078) | DRSC08516 | 1.21e6 | 1.38e6 | 8.90e5 | 9.98e5 |
| OSCP1 (GeneID 36300) | DRSC06304 | 1.53e6 | 1.53e6 | 1.28e6 | 1.41e6 |
| Gdi (GeneID 34264) | DRSC03330 | 1.35e6 | 1.42e6 | 1.15e6 | 1.07e6 |
| fru (GeneID 42226) | DRSC16951 | 1.27e6 | 1.24e6 | 6.87e5 | 7.61e5 |
| fru (GeneID 42226) | DRSC16952 | 9.93e5 (active) | 9.54e5 | 6.60e5 | 7.34e5 |
| fru (GeneID 42226) | DRSC16953 | 1.38e6 | 1.69e6 | 1.03e6 | 1.07e6 |
| Nepl15 (GeneID 42701) | DRSC15630 | 1.63e6 | 1.63e6 | 1.30e6 | 1.31e6 |
| Mccc1 (GeneID 43750) | DRSC15417 | 5.27e5 | – | 7.53e5 | – |
| CG12299 (GeneID 34483) | DRSC02158 | 1.07e6 | 1.14e6 | 1.08e6 | 9.92e5 |
| rumpel (GeneID 31674) | DRSC18436 | 1.54e6 | 1.53e6 | 1.13e6 | 1.27e6 |
| swm (GeneID 35235) | DRSC02012 | 1.55e6 | 1.56e6 | 1.11e6 | 1.25e6 |
| CG13601 (GeneID 42826) | DRSC14604 | 1.51e6 | 1.54e6 | 1.23e6 | 1.31e6 |
| yip7 (GeneID 38680) | DRSC11410 | 1.56e6 | 1.53e6 | 1.06e6 | 1.20e6 |
| spz5 (GeneID 38350) | DRSC08645 | 1.34e6 | 1.40e6 | 1.19e6 | 1.12e6 |
| gb (GeneID 43265) | DRSC15961 | 5.31e5 | – | 8.65e5 | – |
| CG13293 (GeneID 38695) | DRSC09967 | 1.45e6 | 1.38e6 | 1.11e6 | 1.22e6 |
| CG10657 (GeneID 39423) | DRSC09768 | 1.45e6 | 1.43e6 | 1.07e6 | 1.16e6 |
| rhi (GeneID 44879) | DRSC05996 | 1.56e6 | 1.60e6 | 1.20e6 | 1.32e6 |
| Akap200 (GeneID 34170) | DRSC01864 | 1.17e6 | 1.31e6 | 5.21e5 | 5.30e5 |
| spri (GeneID 31987) | DRSC17846 | 1.42e6 | 1.39e6 | 8.81e5 | 9.92e5 |
| spri (GeneID 31987) | DRSC17984 | 1.48e6 | 1.52e6 | 1.02e6 | 1.17e6 |
| spri (GeneID 31987) | DRSC17985 | 1.59e6 | 1.71e6 | 1.05e6 | 1.15e6 |
| spri (GeneID 31987) | DRSC17986 | 1.84e6 | 1.74e6 | 1.15e6 | 1.26e6 |
| spri (GeneID 31987) | DRSC17988 | 1.67e6 | 1.56e6 | 1.05e6 | 1.16e6 |
| spri (GeneID 31987) | DRSC17989 | 1.59e6 | 1.48e6 | 1.03e6 | 1.10e6 |

Entries above whose gene name starts with R or r (2):
| Gene | DRSC id | Kc cell number, rep 1 | Kc cell number, rep 2 | S2R+ cell number, rep 1 | S2R+ cell number, rep 2 |
| --- | --- | --- | --- | --- | --- |
| rumpel (GeneID 31674) | DRSC18436 | 1.54e6 | 1.53e6 | 1.13e6 | 1.27e6 |
| rhi (GeneID 44879) | DRSC05996 | 1.56e6 | 1.60e6 | 1.20e6 | 1.32e6 |
